From US20240384326
A weaker result is weaker than the reference pair of the same experiment. For some of these results: Construct, isoform or probe ends are uncertain for at least one entry.

The chains behind the UniProt entries cited, without tags or fusion partners. Where a name states a change or a piece, a line headed by the entry shows the natural chain unless it says otherwise.
UniProt P31941: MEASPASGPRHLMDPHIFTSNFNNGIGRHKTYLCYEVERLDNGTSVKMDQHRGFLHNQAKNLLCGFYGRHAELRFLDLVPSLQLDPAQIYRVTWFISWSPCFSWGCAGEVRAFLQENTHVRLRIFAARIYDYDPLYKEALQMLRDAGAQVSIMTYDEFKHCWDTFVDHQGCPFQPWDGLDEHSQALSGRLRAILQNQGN

Assays:
APOBEC3A (commercial) = APOBEC3A (commercial) (UniProt P31941); assay: activity assay; conditions: poisoned primer assay; weak activity on RNA; purified recombinant protein; protein details: New England Biolabs
[1] = tested on: anti-inosine antibody Ab10; assay: pull-down; conditions: off-target in mixture, purified native protein, protein details: Diagenode cat. no. C15200251, label: 5'-FAM
anti-m5C antibody Ab16 = assay: pull-down; conditions: purified native protein, protein details: Thermo Fisher cat. no. MA5-24694, label: 5'-FAM
anti-m6A antibody Ab05 = assay: pull-down; conditions: purified native protein, protein details: Synaptic Systems cat. no. 345E11, label: 5'-FAM

“AGAACAGAACAGAACAGAUGAUAGGAAGGAUGAAGGUGAGU [PPA C template, RNA]” was tested, and the “activity on this sequence” value (APOBEC3A (commercial)) was “less active”.

“CGUCGGCAGCGUCAGAUGAUAUUCGAAGUAUGAC [m5C RNA target]”: binds more weakly ([1]; m5C); binds (anti-m5C antibody Ab16; m5C, protein G beads, mixture of targets, specificity 3 to 44 over N30 across antibodies); binds more weakly (anti-m6A antibody Ab05; m5C, off-target in mixture).

“UCGUCGGCAGCGUCAGAUGCAUAAGGUCAAUAUUAAGUAUAGACTGAGTG [m6A RNA target with 3' 8b DNA spacer]”: binds more weakly ([1]; m6A, RNA with 3' DNA ACTGAGTG [m6A at 29, RNA 1-42, DNA 43-50], letters built from the parent sequence and the stated change); binds more weakly (anti-m5C antibody Ab16; m6A, RNA with 3' DNA ACTGAGTG [m6A at 29, RNA 1-42, DNA 43-50], off-target in mixture, letters built from the parent sequence and the stated change); binds (anti-m6A antibody Ab05; m6A, RNA with 3' DNA ACTGAGTG [m6A at 29, RNA 1-42, DNA 43-50], protein G beads, mixture of targets, specificity 3 to 44 over N30 across antibodies, letters built from the parent sequence and the stated change).
